In patent US10544202B2, “Mutant proteins and methods for their production” (Medical Research Council, priority 2013, dated 2020) one finds Kd data, which are given here for 1 compound.

Chains of the proteins cited; added tags and fusions are not shown.
UniProt P31652, whole entry: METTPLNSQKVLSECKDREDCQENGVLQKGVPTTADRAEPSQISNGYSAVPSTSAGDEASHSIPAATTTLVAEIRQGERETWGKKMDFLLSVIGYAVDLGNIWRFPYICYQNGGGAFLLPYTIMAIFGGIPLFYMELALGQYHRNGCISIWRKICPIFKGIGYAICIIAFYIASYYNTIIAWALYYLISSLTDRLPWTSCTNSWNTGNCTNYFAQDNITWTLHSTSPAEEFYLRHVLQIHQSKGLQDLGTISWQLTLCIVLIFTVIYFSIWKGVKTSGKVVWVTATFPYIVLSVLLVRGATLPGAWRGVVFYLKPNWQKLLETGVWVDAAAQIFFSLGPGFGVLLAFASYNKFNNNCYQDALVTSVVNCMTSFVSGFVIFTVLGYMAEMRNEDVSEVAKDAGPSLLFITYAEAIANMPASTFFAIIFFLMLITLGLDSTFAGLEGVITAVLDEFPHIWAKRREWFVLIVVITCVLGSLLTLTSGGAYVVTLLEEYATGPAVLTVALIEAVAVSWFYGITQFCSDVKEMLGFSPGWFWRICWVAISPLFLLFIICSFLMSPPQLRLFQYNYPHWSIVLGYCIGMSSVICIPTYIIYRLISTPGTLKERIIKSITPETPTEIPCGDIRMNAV

Each structure is given as a SMILES string. Some entries of the source have several records that differ or are many. The list is limited to them. There may be further records. Values that stand side by side do not match, cause unknown; they may come from other doses, times, organisms or constructs than stated.

This experiment deals with wild-type SERT (Rattus norvegicus, UniProt P31652). Put plainly: [125I]-RTI55 saturation binding on membranes, wild-type SERT. The following applies: read-out: apparent KD for [125I]-RTI55 binding, tested as the radiolabelled form.

For `COC(=O)[C@H]1[C@@H](c2ccc(I)cc2)C[C@@H]2CC[C@H]1N2C`, the Kd is 1.6 nM and 3.7 nM.
